Measured data: PubChem BioAssay AID1671195 (Yale University, 2021)

Screen: 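Genes whose knockdown alters LDL uptake in liver cancer cells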 (primary screen)
System: human Huh7 hepatoma cells
Reagents: siRNA pool against human genes, 18 nM
Time to read-out: about 2 to 2.5 days of knockdown, then 8 h LDL uptake
Treatment: DiI-labelled LDL at 30 µg/ml for 8 h, in lipoprotein-deficient serum medium
Measurement: 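Fluorescent LDL signal imaged in cells, scaled to the plate median, robust z-score for each replicate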
Scale: robust z-score: higher = more LDL uptake after knockdown
Active means: 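Active when two or more replicates show a robust z-score above 2 or below -2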
In all, the deposit lists about 22,000 reagents; this is a part drawn at random. In the full data, about 1,510 (6.9%) got an active call. 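Active includes knockdowns raising or lowering LDL uptake; positive z-scores mean more uptake, negative mean less.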 The numbers tell different reagents against one gene apart.

CBX8 — robust z-score, replicate 1: -0.913; robust z-score, replicate 2: -0.394; robust z-score, replicate 3: 0.121; Outcome: inactive
KRABD1 #1 — robust z-score, replicate 1: -0.197; robust z-score, replicate 2: -0.234; robust z-score, replicate 3: -0.322; Outcome: inactive
KRABD1 #2 — robust z-score, replicate 1: -0.764; robust z-score, replicate 2: -2.94; robust z-score, replicate 3: -0.441; Outcome: inactive
ZNF511 — robust z-score, replicate 1: -0.649; robust z-score, replicate 2: -0.152; robust z-score, replicate 3: -0.359; Outcome: inactive
BCHE — robust z-score, replicate 1: -0.273; robust z-score, replicate 2: 0.753; robust z-score, replicate 3: 0.295; Outcome: inactive
LMO1 — robust z-score, replicate 1: 0.0111; robust z-score, replicate 2: -0.17; robust z-score, replicate 3: -0.141; Outcome: inactive
ALDOAP1 — robust z-score, replicate 1: -0.196; robust z-score, replicate 2: 0.683; robust z-score, replicate 3: 0.381; Outcome: inactive
MTMR3 #1 — robust z-score, replicate 1: 1.8; robust z-score, replicate 2: 2.05; robust z-score, replicate 3: 2.51; Outcome: active
MTMR3 #2 — robust z-score, replicate 1: 1.27; robust z-score, replicate 2: 1.39; robust z-score, replicate 3: 1.02; Outcome: inactive
CNP — robust z-score, replicate 1: 1.33; robust z-score, replicate 2: -0.449; robust z-score, replicate 3: 0.932; Outcome: inactive
MTPAP — robust z-score, replicate 1: 0.691; robust z-score, replicate 2: 0.0947; robust z-score, replicate 3: 2.08; Outcome: inactive
IQCF5 — robust z-score, replicate 1: 0.165; robust z-score, replicate 2: -0.311; robust z-score, replicate 3: -0.0458; Outcome: inactive
BMP6 — robust z-score, replicate 1: 0.359; robust z-score, replicate 2: 1.95; robust z-score, replicate 3: 0.459; Outcome: inactive
LRP2 — robust z-score, replicate 1: -1.05; robust z-score, replicate 2: -0.979; robust z-score, replicate 3: -1.31; Outcome: inactive
OR6C76 — robust z-score, replicate 1: -0.424; robust z-score, replicate 2: -0.0132; robust z-score, replicate 3: -0.894; Outcome: inactive
PNRC1 — robust z-score, replicate 1: 0.429; robust z-score, replicate 2: -0.835; robust z-score, replicate 3: 0.42; Outcome: inactive
CYP11B2 — robust z-score, replicate 1: -1.38; robust z-score, replicate 2: -1.42; robust z-score, replicate 3: -1.5; Outcome: inactive
LOC400547 (retired record) — robust z-score, replicate 1: 0.0209; robust z-score, replicate 2: 0.3; robust z-score, replicate 3: 0.207; Outcome: inactive
FBXO38 — robust z-score, replicate 1: -0.39; robust z-score, replicate 2: -0.391; robust z-score, replicate 3: 0.199; Outcome: inactive
LOC392531 (retired record) — robust z-score, replicate 1: -0.758; robust z-score, replicate 2: 0.197; robust z-score, replicate 3: 0.498; Outcome: inactive
PCDHGA4 — robust z-score, replicate 1: -0.671; robust z-score, replicate 2: -0.759; robust z-score, replicate 3: -0.539; Outcome: inactive
LOC339553 (retired record) — robust z-score, replicate 1: -0.179; robust z-score, replicate 2: 0.266; robust z-score, replicate 3: 0.246; Outcome: inactive
LOC388180 (retired record) — robust z-score, replicate 1: -0.0997; robust z-score, replicate 2: -0.288; robust z-score, replicate 3: -0.59; Outcome: inactive
CNNM2 — robust z-score, replicate 1: -0.0808; robust z-score, replicate 2: 0.745; robust z-score, replicate 3: 0.539; Outcome: inactive
DIS3 — robust z-score, replicate 1: -0.426; robust z-score, replicate 2: 0.261; robust z-score, replicate 3: -0.247; Outcome: inactive
SLC25A23 — robust z-score, replicate 1: 2.35; robust z-score, replicate 2: -0.152; robust z-score, replicate 3: -2.16; Outcome: inactive
DMRTC1 — robust z-score, replicate 1: 0.547; robust z-score, replicate 2: 0.794; robust z-score, replicate 3: 0.513; Outcome: inactive
LOC284898 — robust z-score, replicate 1: 0.0538; robust z-score, replicate 2: 0.368; robust z-score, replicate 3: -0.506; Outcome: inactive
GTSF1 — robust z-score, replicate 1: 0.847; robust z-score, replicate 2: 0.454; robust z-score, replicate 3: 0.02; Outcome: inactive
HCRTR2 — robust z-score, replicate 1: 0.429; robust z-score, replicate 2: -0.592; robust z-score, replicate 3: 0.162; Outcome: inactive

Quoted from the listing for reference:
KRABD1 #1 — robust z-score, replicate 1: -0.197; robust z-score, replicate 2: -0.234; robust z-score, replicate 3: -0.322; Outcome: inactive
KRABD1 #2 — robust z-score, replicate 1: -0.764; robust z-score, replicate 2: -2.94; robust z-score, replicate 3: -0.441; Outcome: inactive
ZNF511 — robust z-score, replicate 1: -0.649; robust z-score, replicate 2: -0.152; robust z-score, replicate 3: -0.359; Outcome: inactive
